This data set has as its system HIBM patients. Kind of data set: Phase 2 clinical trial: baseline serum biomarker levels in 47 HIBM patients vs 126 normal controls (Human Discovery MAP250+ immunoassay). The class given is in vivo. To be noted: Table 12.
Setting [1] is: fold, HIBM patients vs normal controls.
The mark [2] stands for this setting: serum level, 47 HIBM patients, baseline.
[3] abbreviates: serum level, 126 normal controls.

B1: Neuron-Specific Enolase (NSE) (protein, UniProt P09104 2-434, looked up)
Gamma-enolase: SIEKIWAREILDSRGNPTVEVDLYTAKGLFRAAVPSGASTGIYEALELRDGDKQRYLGKGVLKAVDHINSTIAPALISSGLSVVEQEKLDNLMLELDGTENKSKFGANAILGVSLAVCKAGAAERELPLYRHIAQLAGNSDLILPVPAFNVINGGSHAGNKLAMQEFMILPVGAESFRDAMRLGAEVYHTLKGVIKDKYGKDATNVGDEGGFAPNILENSEALELVKEAIDKAGYTEKIVIGMDVAASEFYRDGKYDLDFKSPTDPSRYITGDQLGALYQDFVRDYPVVSIEDPFDQDDWAAWSKFTANVGIQIVGDDLTVTNPKRIERAVEEKACNCLLLKVNQIGSVTEAIQACKLAQENGWGVMVSHRSGETEDTFIADLVVGLCTGQIKTGAPCRSERLAKYNQLMRIEEELGDEARFAGHNFRNPSVL
For the molecule B1, under setting [1], the “change in mean (HIBM/nomral)” value came out at 0.18 and the “change in median (HIBM/normal)” value stood at 0.11. Besides, under setting [2], the “HIBM Mean” value turned out to be 2.51 ng/mL and the “HIBM Median” value was 1.10 ng/mL. Besides, under setting [3], the “Normal Mean” value is on record as 14 ng/mL and the “Normal Median” value was found to be 10 ng/mL.

Source of the values: patent US20140113876A1, “BIOMARKERS FOR ASSESSING TREATMENT OF SIALIC ACID DEFICIENCY DISEASES AND CONDITIONS” (ULTRAGENYX PHARMACEUTICAL INC., priority 2012, published 2014).
